Data reported in the supplement of paper PMC4683952.
The list shows a part of the results. Cut-off read from the data, not from the text of the source: active = 2 or more and inactive = the rest. Most values lie within the scatter of the assay; repeated measurements hardly agree.

tested on: Lgr5 (MarsCy1-Lgr5-EGFP, U2OS); assay: cell-surface Lgr5 expression (SCi1 fluorescence, background-subtracted) relative to WT DMSO (fold of DMSO control); higher = more Lgr5 at the plasma membrane; conditions: U2OS MarsCy1-Lgr5-EGFP stable; treatment time: overnight; library: ActiProbe-5K (TimTec); 25 µM

Structure (SMILES)	cell-surface Lgr5 expression
C1(/C(=C(\C)C)NC(=O)N1)=O	inactive: 1.2
CC(C)CCc1nnc(N)s1	inactive: 1.32
Oc1c(Br)cc(Br)cc1/C=N\c1ccc(F)cc1	inactive: 0.936
Nc1nonc1-c1noc(-c2ccco2)n1	inactive: 1.09
O=C1CC2CS(=O)(=O)CC2N1c1cc(Cl)ccc1Cl (stereo not given)	inactive: 1.1
N#CCCN(CCC#N)c1ccncc1	inactive: 1.42
CN(C)CC#CC1(O)CCCCC1	inactive: 1.22
Cc1nnc(NC(=O)Cn2nc(C(F)(F)F)c(Cl)c2C2CC2)s1	inactive: 1.16
CCN(CC)CCCNC(=O)C(C)C	inactive: 0.977
O=[N+]([O-])c1ccc(/N=C/c2ccc(Br)o2)cc1	inactive: 1.04
O/N=C(/C=C\c1ccccc1)\C=C\c1ccccc1	inactive: 0.604
CN(C)c1ccc(/C=N\c2ccc3cc4ccc(/N=C\c5ccc(N(C)C)cc5)cc4nc3c2)cc1	inactive: 1.74
O=C(N/N=C/c1ccc(Br)s1)c1cnccn1	active: 2
CS(=O)(=O)NC1c2ccccc2-c2ccccc21	inactive: 1.2
O=C1c2sc3nncc(=O)n3c2C(=O)N1c1ccccc1	inactive: 1.44
Cc1cc2c(c(=S)[nH]1)C(=O)OC2	inactive: 1.01
Cc1cc(C(=O)O)c(CSCc2cc(C(=O)O)c(C)o2)o1	inactive: 1.12
NC(=S)N/N=C\c1cc(Br)cc(Br)c1O	inactive: 0.707
O=S(=O)(c1ccc(F)c(Cl)c1)N1CCCC1	inactive: 1.31
N#CCCOC1(C#CCN2CCCCC2)CCCCC1	inactive: 1.09
CC(C)NC(=S)NC(=O)C1CCCCC1	inactive: 1.09
CCCCn1c(SC(C)CC)nc2c1c(=O)[nH]c(=O)n2C (stereo not given)	inactive: 1.65
C#CCSc1nc(-c2ccccc2)cc(-c2ccccc2)c1C#N	inactive: 1.04
Cn1cc(C=O)c2ccc(F)cc21	inactive: 1.02

Retrieved by compound from the list above (3):
Structure (SMILES)	cell-surface Lgr5 expression
Cc1cc2c(c(=S)[nH]1)C(=O)OC2	inactive: 1.01
O=[N+]([O-])c1ccc(/N=C/c2ccc(Br)o2)cc1	inactive: 1.04
Cn1cc(C=O)c2ccc(F)cc21	inactive: 1.02

Next part.

Structure (SMILES)	cell-surface Lgr5 expression
COc1ccc(S(=O)(=O)NCC2CCCO2)cc1 (stereo not given)	inactive: 1.07
Cl.Fc1ccccc1CSC1=NCCN1	inactive: 1.07
c1csc(-c2noc(COc3ccc4c(c3)CCC4)n2)c1	inactive: 1.31
OCn1cnc2ccccc21	inactive: 0.958
CC(=O)Nc1nonc1NC(=O)C(F)(F)F	inactive: 1.18
CN1CCc2cc(C=O)ccc21	inactive: 1.25
CC(=O)OC1CC(C)CC(C)(C)C1 (stereo not given)	inactive: 1.31
c1ccc2c3c([nH]c2c1)CCCC3	inactive: 1.11
O=C(C1=C(O)C(=O)N(CCN2CCOCC2)C1c1ccco1)c1ccco1 (stereo not given)	inactive: 1.08
Oc1c(Br)cc(Br)cc1/C=N\c1ccc(Cl)cn1	inactive: 1.18
C1CC(/CCC1)=N/Oc1ccc(cc1)[N+]([O-])=O	inactive: 1
N#CC1=C(N)Oc2c(c(=O)oc3ccccc23)C12C(=O)Nc1ccccc12 (stereo not given)	inactive: 1
Sc1nnc(-c2ccccn2)n1/N=C/C=C\c1ccco1	inactive: 1.11
Cc1nc2sc(-c3ccon3)c(-n3cccc3)c2c(C)c1Cl	inactive: 1.2
Cn1cnc2sc3c(c2c1=O)CCCC3	inactive: 0.996
O=Cc1cnn2cccnc12	inactive: 1.34
CS(=O)(=O)N1CCCc2cc([N+](=O)[O-])cc([N+](=O)[O-])c21	inactive: 1.21
COC(=O)C(C(C)=O)(N1CCOCC1)N1CCOCC1	inactive: 1.22
O=C1NCCC2C1N=C(N1CCCCC1)N2C1OC(CO)C(O)C1O (stereo not given)	inactive: 1.16
O=C1Nc2ccccc2/C1=N\Nc1nnn[nH]1	inactive: 1.25
O=[N+]([O-])c1ccc(Cn2cc[n+](Cc3ccc([N+](=O)[O-])cc3)c2)cc1	inactive: 1.28
Cc1ccc(OS(=O)(=O)C(F)(F)F)cc1	inactive: 1.28
Cc1n[nH]c(C)c1CCC(=O)NN	inactive: 1.09
CC1=C(C(=O)OC(C)C)C(c2ccc(C)o2)NC(=O)N1 (stereo not given)	inactive: 1.11

Structure (SMILES)	cell-surface Lgr5 expression
CSc1nc2n(n1)C(c1ccc(Cl)cc1)C=C(c1ccccc1)N2 (stereo not given)	inactive: 0.739
O=C1OCc2cc(-n3cccc3)ccc21	inactive: 1.16
COc1cc(=O)oc2cc(O)ccc12	inactive: 1.04
CC(C)(C)C(N)Cn1ccnc1 (stereo not given)	inactive: 1.39
Cn1nnnc1SCC(=O)Nc1nccs1	inactive: 1.16
Clc1cc2c(cc1/C=N/Nc1nc3ccccc3[nH]1)OCO2	inactive: 0.755
CC1CCc2c(sc(N)c2C(=O)OC(C)C)C1 (stereo not given)	inactive: 1.07
CC1(C)Oc2ccc(Br)cc2O1	inactive: 0.671
COCCN1C(=O)CCC2(CCC(=O)NC2)C1=O (stereo not given)	inactive: 1.35
CCCCCN(CCCCC)c1nc2c(c(=O)[nH]c(=O)n2C)n1C	inactive: 1.41
Fc1ccc([C@@H]2Nc3c(F)cccc3[C@@H]3C=CC[C@H]32)cc1	inactive: 1.17
O=C(CC1NC(=O)N(C2CCCCC2)C1=O)NCC12CC3CC(CC(C3)C1)C2 (stereo not given)	inactive: 0.785
CCCC(=O)OC1CC(n2cc(C)c(=O)[nH]c2=O)OC1CO (stereo not given)	inactive: 0.961
NC(=S)N/N=C/c1ccc(Cl)cc1Cl	inactive: 1.62
O=c1cc(O)c2sc3nc4c(c(C(F)(F)F)c3c2[nH]1)CCCCC4	inactive: 1.35
CN(C)CCN1C(=O)C(O)=C(C(=O)c2cccs2)C1c1ccco1 (stereo not given)	inactive: 1.2
CCN(C(=O)C(C)C)C1CCCCC1	inactive: 1
CC1(C)C=C(c2ccc(C3=CC(C)(C)NC(C)(C)C3)s2)CC(C)(C)N1	inactive: 0.771
CCOC(=O)c1sc(NC(=O)C(C)C)c(C(=O)OCC)c1C	inactive: 1.29
Cc1c(-c2cc(C(F)F)c3c(C4CC4)nn(C)c3n2)cnn1C	inactive: 1.24
O=C(CCn1nc(C(F)(F)F)c(Cl)c1C1CC1)Nc1nnc(C2CC2)s1	inactive: 1.22
N#Cc1c(SCC(=O)NC2CC2)sc2c(O)nc(=O)[nH]c12	inactive: 1.19

Already shown: entries from further up.
Structure (SMILES)	cell-surface Lgr5 expression
NC(=S)N/N=C/c1ccc(Cl)cc1Cl	inactive: 1.62
O=c1cc(O)c2sc3nc4c(c(C(F)(F)F)c3c2[nH]1)CCCCC4	inactive: 1.35
